# Data taken from the RepoRT retention time repository (doi:10.1016/j.jhazmat.2019.121712).
# Assay: Thermo Scientific Acclaim RSLC 120 C18, 100 × 2.1 mm, 2.2 µm, 30 °C; A: 90% water + 10% methanol + 0.01% formic acid + 5 mM ammonium formate; B: methanol + 0.01% formic acid + 5 mM ammonium formate; gradient (min/%B) 0.1/1 3/39 14/99.9 16/99.9
# Conditions: stereoisomer not certain
smiles,measurement,value
O=C(c1ccccc1)c1ccccc1,LC retention time,10.8 min
